Test results published in paper PMC7177587.

Target: GST‐PDZ1‐5‐M2 (GST‐PDZ1‐5 with PDZ domain 2 disrupted by the GLG‐GRG mutation)
Experiment: pull-down; GST-MUPP1-PDZ fusion proteins immobilized on glutathione resin (30 µl) mixed with 1 ml E. coli extract with overexpressed CBD or GlyT2Nrcf1 fusion of the CADM1 motif, 1 hr, room temperature; washed 3x; eluted with 20 mM glutathione (pH 8.0) or SDS sample buffer; 12% gel, Coomassie; only the target purified

Row | binding | Binder
1 | binds | EKKEYFI [GlyT2Nrcf1‐EKKEYFI fusion protein]
2 | binds | EKKEYFI [CBD‐EKKEYFI fusion protein containing the CADM1 PDZ motif (EKKEYFI)]

Results are given in words; binding and its absence hold for the method and conditions named. Binding seen in cells or lysates may run through a third protein. A result given as binding can be weak or reduced; the word gives no strength. Where a sequence is shown, tags or fusion partners need not be part of it.
